The record followed here is publication PMC5291280.

The chains behind the UniProt entries cited, without tags or fusion partners.
UniProt O60573: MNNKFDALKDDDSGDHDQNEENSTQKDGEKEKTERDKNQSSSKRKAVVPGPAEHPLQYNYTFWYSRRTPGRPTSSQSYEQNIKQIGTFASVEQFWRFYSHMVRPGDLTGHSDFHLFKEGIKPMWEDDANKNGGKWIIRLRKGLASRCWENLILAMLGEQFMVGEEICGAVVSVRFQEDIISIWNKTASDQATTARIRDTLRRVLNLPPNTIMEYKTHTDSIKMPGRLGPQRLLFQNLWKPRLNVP
UniProt P06730: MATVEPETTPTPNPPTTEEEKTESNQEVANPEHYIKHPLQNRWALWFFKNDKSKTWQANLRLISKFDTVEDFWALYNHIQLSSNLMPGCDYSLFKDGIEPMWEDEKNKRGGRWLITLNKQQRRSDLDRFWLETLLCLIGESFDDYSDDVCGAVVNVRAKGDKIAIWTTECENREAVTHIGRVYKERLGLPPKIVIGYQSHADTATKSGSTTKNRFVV
UniProt Q8ND56: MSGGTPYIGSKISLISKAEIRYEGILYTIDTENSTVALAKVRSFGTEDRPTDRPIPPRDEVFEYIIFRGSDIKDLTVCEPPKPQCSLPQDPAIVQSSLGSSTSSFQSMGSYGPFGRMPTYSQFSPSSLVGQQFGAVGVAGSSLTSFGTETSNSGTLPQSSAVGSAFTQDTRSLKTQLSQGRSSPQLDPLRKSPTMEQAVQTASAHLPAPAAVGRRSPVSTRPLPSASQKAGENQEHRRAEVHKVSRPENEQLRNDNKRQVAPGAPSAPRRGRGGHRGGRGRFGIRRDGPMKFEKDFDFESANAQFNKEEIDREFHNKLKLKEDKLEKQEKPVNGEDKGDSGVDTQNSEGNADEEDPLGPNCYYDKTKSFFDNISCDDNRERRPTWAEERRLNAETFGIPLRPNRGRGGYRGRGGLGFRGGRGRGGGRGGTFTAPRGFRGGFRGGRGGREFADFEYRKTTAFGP
UniProt Q96F86: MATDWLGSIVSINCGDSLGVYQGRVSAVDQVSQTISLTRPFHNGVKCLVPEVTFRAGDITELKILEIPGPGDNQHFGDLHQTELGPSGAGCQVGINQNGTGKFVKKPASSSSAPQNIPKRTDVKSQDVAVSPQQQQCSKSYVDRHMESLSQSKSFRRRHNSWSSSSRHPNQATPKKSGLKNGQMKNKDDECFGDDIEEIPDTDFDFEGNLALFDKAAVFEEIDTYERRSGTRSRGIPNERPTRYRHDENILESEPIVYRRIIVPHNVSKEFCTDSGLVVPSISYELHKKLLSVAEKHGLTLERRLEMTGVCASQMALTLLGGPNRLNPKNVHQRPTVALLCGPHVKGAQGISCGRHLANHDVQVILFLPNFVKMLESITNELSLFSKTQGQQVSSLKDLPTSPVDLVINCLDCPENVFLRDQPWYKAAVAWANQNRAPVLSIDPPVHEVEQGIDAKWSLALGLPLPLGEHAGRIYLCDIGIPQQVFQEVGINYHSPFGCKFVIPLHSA

First the molecules themselves.
B1: PAT1B, endogenous (protein, UniProt Q86TB9 1-770)
chain: MFRYESLEDCPLDEDEDAFQGLGEEDEEIDQFNDDTFGSGAVDDDWQEAHERLAELEEKLPVAVNEQTGNGERDEMDLLGDHEENLAERLSKMVIENELEDPAIMRAVQTRPVLQPQPGSLNSSIWDGSEVLRRIRGPLLAQEMPTVSVLEYALPQRPPQGPEDDRDLSERALPRRSTSPIIGSPPVRAVPIGTPPKQMAVPSFTQQILCPKPVHVRPPMPPRYPAPYGERMSPNQLCSVPNSSLLGHPFPPSVPPVLSPLQRAQLLGGAQLQPGRMSPSQFARVPGFVGSPLAAMNPKLLQGRVGQMLPPAPGFRAFFSAPPSATPPPQQHPPGPGPHLQNLRSQAPMFRPDTTHLHPQHRRLLHQRQQQNRSQHRNLNGAGDRGSHRSSHQDHLRKDPYANLMLQREKDWVSKIQMMQLQSTDPYLDDFYYQNYFEKLEKLSAAEEIQGDGPKKERTKLITPQVAKLEHAYKPVQFEGSLGKLTVSSVNNPRKMIDAVVTSRSEDDETKEKQVRDKRRKTLVIIEKTYSLLLDVEDYERRYLLSLEEERPALMDDRKHKICSMYDNLRGKLPGQERPSDDHFVQIMCIRKGKRMVARILPFLSTEQAADILMTTARNLPFLIKKDAQDEVLPCLLSPFSLLLYHLPSVSITSLLRQLMNLPQSAATPALSNPHLTAVLQNKFGLSLLLILLSRGEDLQSSDPATESTQNNQWTEVMFMATRELLRIPQAALAKPISIPTNLVSLFSRYVDRQKLNLLETKLQLVQGIR

No constants are given. Whether binding was seen depends on the method and setting. Binding seen in cells or lysates may run through a third protein. A yes stands for co-enrichment or nearness to the bait. Other partners may have been found. Tags and fused reporters may be left off the sequences shown.

This assay deals with T1, FLAG-4E-T (4E-Transporter, full length) (human) (UniProt Q9NRA8).
T1 sequence: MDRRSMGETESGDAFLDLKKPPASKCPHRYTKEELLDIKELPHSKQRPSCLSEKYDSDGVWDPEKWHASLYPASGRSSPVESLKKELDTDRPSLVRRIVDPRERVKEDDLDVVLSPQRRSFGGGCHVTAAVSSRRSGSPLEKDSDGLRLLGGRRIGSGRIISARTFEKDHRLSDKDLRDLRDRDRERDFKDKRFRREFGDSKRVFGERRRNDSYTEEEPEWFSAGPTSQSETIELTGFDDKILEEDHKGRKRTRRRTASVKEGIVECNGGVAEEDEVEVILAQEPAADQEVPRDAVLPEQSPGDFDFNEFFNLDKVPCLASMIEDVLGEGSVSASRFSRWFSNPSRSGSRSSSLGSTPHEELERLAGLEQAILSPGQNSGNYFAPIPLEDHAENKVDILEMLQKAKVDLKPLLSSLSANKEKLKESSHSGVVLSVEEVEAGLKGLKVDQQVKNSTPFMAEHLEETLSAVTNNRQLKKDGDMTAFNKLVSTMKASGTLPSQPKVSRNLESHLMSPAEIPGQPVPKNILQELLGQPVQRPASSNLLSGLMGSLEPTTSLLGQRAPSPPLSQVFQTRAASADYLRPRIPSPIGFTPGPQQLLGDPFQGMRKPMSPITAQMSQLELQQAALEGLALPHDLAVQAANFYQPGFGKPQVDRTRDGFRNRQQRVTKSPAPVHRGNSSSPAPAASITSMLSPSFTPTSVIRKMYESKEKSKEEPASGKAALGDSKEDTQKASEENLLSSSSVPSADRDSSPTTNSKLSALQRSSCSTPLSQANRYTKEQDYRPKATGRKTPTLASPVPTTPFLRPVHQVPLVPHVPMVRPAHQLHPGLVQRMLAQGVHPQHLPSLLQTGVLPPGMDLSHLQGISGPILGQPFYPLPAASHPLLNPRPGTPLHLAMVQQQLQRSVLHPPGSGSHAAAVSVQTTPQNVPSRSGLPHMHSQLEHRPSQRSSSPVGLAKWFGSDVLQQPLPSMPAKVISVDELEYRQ
Nature of the assay: affinity purification with mass spectrometry; FLAG-4E-T or empty vector in HEK293T; anti-M2 affinity gel, eluted with FLAG peptide, SDS-PAGE slices, GELC/MS/MS; two independent experiments.
Consider “eIF4E2, endogenous (from UniProt O60573 1-245)”, for which the binding entry is given as “binds”.

In the case of “eIF4E1, endogenous (from UniProt P06730 1-217)”, the binding result is listed as “binds”.

On to “LSM14A, endogenous (from UniProt Q8ND56 1-463)”, for which the binding result is on record as “binds”.

Regarding “EDC3, endogenous (from UniProt Q96F86 1-508)”, the binding entry is recorded as “binds weakly”.

As to B1, the binding result is “binds”.
